{"source": "PubChem BioAssay AID686943, Drosophila RNAi Screening Center | 2013", "test": "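Search across the genome for regulators of signalling from receptor tyrosine kinase to ERK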 (primary screen)", "cells": "Drosophila S2R+ haemocyte-like cells expressing YFP-tagged ERK (Rolled)", "reagents": "long dsRNA against Drosophila genes", "conditions": "insulin stimulation versus unstimulated cells; dose and duration not given", "measured": "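Per-plate z-scores of phospho-ERK immunostaining normalised to YFP-tagged ERK, measured with and without insulin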", "reading the numbers": "replicate 1, z-score of dpERK with insulin: higher = more active ERK per ERK-YFP after insulin", "note": "The screen tested about 23,000 reagents; below is an unselected part of those with a known target gene and a result. 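Extra replicates exist only for a retested subset of genes; insulin dose and duration not given; both raised and lowered dpERK matter.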 Reagents against one gene are numbered here. Names joined by + are all predicted targets of the reagent. Further read-outs or replicates are left out here. The record does not give: the amount of reagent, the time to read-out."}
{"gene knocked down": "nAChRbeta2 (nicotinic Acetylcholine Receptor beta2)", "reagent no.": 1, "replicate 1, z-score of dpERK with insulin": 0.29}
{"gene knocked down": "CR31958 (pseudo)", "reagent no.": 1, "replicate 1, z-score of dpERK with insulin": 0.11}
{"gene knocked down": "CR31958 (pseudo)", "reagent no.": 2, "replicate 1, z-score of dpERK with insulin": 0.64}
{"gene knocked down": "mat (materazzi)", "reagent no.": 1, "replicate 1, z-score of dpERK with insulin": -0.42}
{"gene knocked down": "mat (materazzi)", "reagent no.": 2, "replicate 1, z-score of dpERK with insulin": 0.59}
{"gene knocked down": "RabX2", "reagent no.": 1, "replicate 1, z-score of dpERK with insulin": -0.36}
{"gene knocked down": "Cpsf6 (Cleavage and polyadenylation specific factor 6)", "reagent no.": 1, "replicate 1, z-score of dpERK with insulin": -2.52}
{"gene knocked down": "Adgf-C (Adenosine deaminase-related growth factor C)", "reagent no.": 1, "replicate 1, z-score of dpERK with insulin": -1.32}
{"gene knocked down": "CG1602", "reagent no.": 1, "replicate 1, z-score of dpERK with insulin": -0.5}
{"gene knocked down": "CG18268 + CG3014", "reagent no.": 1, "replicate 1, z-score of dpERK with insulin": -0.87}
{"gene knocked down": "acs (arcus)", "reagent no.": 1, "replicate 1, z-score of dpERK with insulin": 0.36}
{"gene knocked down": "CG14331", "reagent no.": 1, "replicate 1, z-score of dpERK with insulin": 0.28}
{"gene knocked down": "CG16978", "reagent no.": 1, "replicate 1, z-score of dpERK with insulin": -0.33}
{"gene knocked down": "CG5111", "reagent no.": 1, "replicate 1, z-score of dpERK with insulin": -0.84}
{"gene knocked down": "CG17612", "reagent no.": 1, "replicate 1, z-score of dpERK with insulin": -0.14}
{"gene knocked down": "CG10274", "reagent no.": 1, "replicate 1, z-score of dpERK with insulin": -0.49}
{"gene knocked down": "asRNA:CR42547 + CG15674", "reagent no.": 1, "replicate 1, z-score of dpERK with insulin": 0.72}
{"gene knocked down": "CG8891", "reagent no.": 1, "replicate 1, z-score of dpERK with insulin": 0.18}
{"gene knocked down": "Muc68Ca (Mucin 68Ca)", "reagent no.": 1, "replicate 1, z-score of dpERK with insulin": -0.24}
{"gene knocked down": "Muc68Ca (Mucin 68Ca)", "reagent no.": 2, "replicate 1, z-score of dpERK with insulin": 0.94}
{"gene knocked down": "CG10195", "reagent no.": 1, "replicate 1, z-score of dpERK with insulin": 1.19}
{"gene knocked down": "Tgi (Tondu-domain-containing Growth Inhibitor)", "reagent no.": 1, "replicate 1, z-score of dpERK with insulin": 1.02}
{"gene knocked down": "Tgi (Tondu-domain-containing Growth Inhibitor)", "reagent no.": 2, "replicate 1, z-score of dpERK with insulin": 0.39}
{"gene knocked down": "raskol", "reagent no.": 1, "replicate 1, z-score of dpERK with insulin": -0.28}
{"gene knocked down": "raskol", "reagent no.": 2, "replicate 1, z-score of dpERK with insulin": 0.9}
{"gene knocked down": "raskol", "reagent no.": 3, "replicate 1, z-score of dpERK with insulin": 0.39}
{"gene knocked down": "raskol", "reagent no.": 4, "replicate 1, z-score of dpERK with insulin": -5.51}
{"gene knocked down": "raskol", "reagent no.": 5, "replicate 1, z-score of dpERK with insulin": 0.99}
{"gene knocked down": "CG3040", "reagent no.": 1, "replicate 1, z-score of dpERK with insulin": 0.17}
{"gene knocked down": "FucTD (alpha1,3-fucosyltransferase D)", "reagent no.": 1, "replicate 1, z-score of dpERK with insulin": 0.05}
{"gene knocked down": "CG3225", "reagent no.": 1, "replicate 1, z-score of dpERK with insulin": 0.17}
